Construct, isoform or probe ends are uncertain for at least one entry. A weaker result is weaker than the reference pair of the same experiment. For some assays here: Tags and fusion partners may be left off the protein sequences shown.
What was measured:
Assay in all cases: EMSA
DMRT4 (mouse) = molecular target: T1, DMRT4 (mouse) (UniProt Q8CFG4); settings: weak shift; EMSA: 10 mM Tris-HCl pH 7.9, 100 mM KCl, 10% glycerol, 5 mM MgCl2, 1 mM spermidine, 0.075% Triton-X-100, 1 mM DTT, 1 ug BSA, 0.1 ug dI-dC, 75 ng plasmid DNA; protein translated in vitro; protein details: C-terminal Myc; label: 32P (Klenow fill-in)
T1 sequence (looked up, limits assumed): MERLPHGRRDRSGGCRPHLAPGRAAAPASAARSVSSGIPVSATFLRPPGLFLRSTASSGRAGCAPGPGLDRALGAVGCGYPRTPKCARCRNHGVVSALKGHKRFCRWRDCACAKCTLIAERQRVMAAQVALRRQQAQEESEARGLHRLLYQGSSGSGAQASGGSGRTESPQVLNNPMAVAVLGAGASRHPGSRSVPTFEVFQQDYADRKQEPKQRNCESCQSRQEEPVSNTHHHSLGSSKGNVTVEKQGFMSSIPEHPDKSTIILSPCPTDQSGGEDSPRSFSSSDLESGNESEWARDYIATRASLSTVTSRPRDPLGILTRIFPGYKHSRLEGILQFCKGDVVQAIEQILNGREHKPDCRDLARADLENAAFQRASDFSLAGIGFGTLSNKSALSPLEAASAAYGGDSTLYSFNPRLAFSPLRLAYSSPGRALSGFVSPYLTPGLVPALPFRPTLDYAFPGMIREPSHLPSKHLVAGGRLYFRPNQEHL

The chains behind the UniProt entries cited, without tags or fusion partners. Where a name states a change or a piece, a line headed by the entry shows the natural chain unless it says otherwise.
UniProt Q8BG36: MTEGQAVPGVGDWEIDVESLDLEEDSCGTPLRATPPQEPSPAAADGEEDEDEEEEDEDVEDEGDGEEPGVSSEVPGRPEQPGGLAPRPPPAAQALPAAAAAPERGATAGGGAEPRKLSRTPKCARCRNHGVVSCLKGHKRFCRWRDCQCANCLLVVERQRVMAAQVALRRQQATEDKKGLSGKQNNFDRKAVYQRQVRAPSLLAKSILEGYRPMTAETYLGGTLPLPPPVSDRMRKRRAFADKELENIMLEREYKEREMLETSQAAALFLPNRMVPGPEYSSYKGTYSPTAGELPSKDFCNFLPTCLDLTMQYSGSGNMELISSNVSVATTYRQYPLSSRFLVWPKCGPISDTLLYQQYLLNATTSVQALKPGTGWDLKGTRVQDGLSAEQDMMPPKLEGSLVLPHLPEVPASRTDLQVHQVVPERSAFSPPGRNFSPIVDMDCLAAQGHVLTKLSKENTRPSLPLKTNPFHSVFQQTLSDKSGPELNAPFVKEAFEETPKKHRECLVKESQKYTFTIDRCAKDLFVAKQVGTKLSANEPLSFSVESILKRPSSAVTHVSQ

DMRT7 (mouse) = molecular target: T2, DMRT7 (mouse) (UniProt Q8CGW9); settings: much less efficient than DMRT1, 28-fold longer exposure; EMSA: 10 mM Tris-HCl pH 7.9, 100 mM KCl, 10% glycerol, 5 mM MgCl2, 1 mM spermidine, 0.075% Triton-X-100, 1 mM DTT, 1 ug BSA, 0.1 ug dI-dC, 75 ng plasmid DNA; protein translated in vitro; protein details: N-terminal Myc; label: 32P (Klenow fill-in)
T2 sequence (looked up, limits assumed): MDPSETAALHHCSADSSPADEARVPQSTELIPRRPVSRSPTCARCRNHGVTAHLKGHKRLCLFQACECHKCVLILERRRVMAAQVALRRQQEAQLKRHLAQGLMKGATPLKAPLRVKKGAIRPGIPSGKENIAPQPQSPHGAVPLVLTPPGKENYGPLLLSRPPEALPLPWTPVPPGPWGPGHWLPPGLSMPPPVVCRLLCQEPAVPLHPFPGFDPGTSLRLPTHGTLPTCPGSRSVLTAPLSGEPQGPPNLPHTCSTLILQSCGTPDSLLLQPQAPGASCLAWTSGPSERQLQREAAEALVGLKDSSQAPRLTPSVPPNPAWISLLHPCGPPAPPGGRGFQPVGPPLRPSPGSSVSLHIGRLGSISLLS

DMRT2 (mouse) = DMRT2 (mouse) (UniProt Q8BG36); settings: much less efficient than DMRT1, 28-fold longer exposure; EMSA: 10 mM Tris-HCl pH 7.9, 100 mM KCl, 10% glycerol, 5 mM MgCl2, 1 mM spermidine, 0.075% Triton-X-100, 1 mM DTT, 1 ug BSA, 0.1 ug dI-dC, 75 ng plasmid DNA; protein translated in vitro; protein details: N-terminal Myc; label: 32P (Klenow fill-in)
DMRT5 (mouse) = molecular target: T3, DMRT5 (mouse) (UniProt A2A9A2); settings: less efficient than DMRT1 site; EMSA: 10 mM Tris-HCl pH 7.9, 100 mM KCl, 10% glycerol, 5 mM MgCl2, 1 mM spermidine, 0.075% Triton-X-100, 1 mM DTT, 1 ug BSA, 0.1 ug dI-dC, 75 ng plasmid DNA; protein translated in vitro; protein details: N-terminal Myc; label: 32P (Klenow fill-in)
T3 sequence (looked up, limits assumed): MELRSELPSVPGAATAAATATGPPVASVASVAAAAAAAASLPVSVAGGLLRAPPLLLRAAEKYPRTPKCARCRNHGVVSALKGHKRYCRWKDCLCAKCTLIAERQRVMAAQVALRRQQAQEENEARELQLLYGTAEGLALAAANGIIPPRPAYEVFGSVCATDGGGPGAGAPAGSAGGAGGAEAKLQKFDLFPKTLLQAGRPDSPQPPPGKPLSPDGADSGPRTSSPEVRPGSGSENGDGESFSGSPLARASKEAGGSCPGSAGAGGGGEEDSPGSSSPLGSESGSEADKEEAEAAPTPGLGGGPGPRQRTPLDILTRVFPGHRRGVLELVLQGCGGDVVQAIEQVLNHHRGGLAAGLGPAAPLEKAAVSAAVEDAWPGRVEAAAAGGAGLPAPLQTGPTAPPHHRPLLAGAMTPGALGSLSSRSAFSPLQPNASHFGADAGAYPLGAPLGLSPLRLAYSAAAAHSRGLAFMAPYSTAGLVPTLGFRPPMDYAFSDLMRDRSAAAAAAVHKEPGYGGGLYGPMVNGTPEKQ

TCGAGAAAATGTAACAATTTAGCCGC / TCGAGCGGCTAAATTGTTACATTTTC [4RE]
binding result (DMRT4 (mouse)): binds more weakly

TCGAGCCCGCAACAATGTTGCAAATC / TCGAGATTTGCAACATTGTTGCGGGC [1RE (Figure 2)]
binding result (DMRT7 (mouse)): binds more weakly
binding result (DMRT2 (mouse)): binds more weakly

TCGAGCGATACAATGTATCAATTTGC / TCGAGCAAATTGATACATTGTATCGC [2RE]
binding result (DMRT2 (mouse)): binds more weakly

TCGAGCGCTACTGTTACATTGTCGCC / TCGAGGCGACAATGTAACAGTAGCGC [5RE]
binding result (DMRT5 (mouse)): binds more weakly
